Results are given in words; binding and its absence hold for the method and conditions named. Some binding calls cover weakened binding; strength is not graded here.
Target: VP2蛋白 (recombinant, Example 3) (鸡传染性法氏囊病病毒 (IBDV), strain not stated) (UniProt Q82635)
Test: sandwich ELISA, scFv-GD coated, VP2 40 μg/ml, detection with anti-VP2 polyclonal antibody

Amino acid sequences for entries named in this document (tags omitted). A change or cut given only in a name is not applied to a line headed by its entry.
UniProt Q82635: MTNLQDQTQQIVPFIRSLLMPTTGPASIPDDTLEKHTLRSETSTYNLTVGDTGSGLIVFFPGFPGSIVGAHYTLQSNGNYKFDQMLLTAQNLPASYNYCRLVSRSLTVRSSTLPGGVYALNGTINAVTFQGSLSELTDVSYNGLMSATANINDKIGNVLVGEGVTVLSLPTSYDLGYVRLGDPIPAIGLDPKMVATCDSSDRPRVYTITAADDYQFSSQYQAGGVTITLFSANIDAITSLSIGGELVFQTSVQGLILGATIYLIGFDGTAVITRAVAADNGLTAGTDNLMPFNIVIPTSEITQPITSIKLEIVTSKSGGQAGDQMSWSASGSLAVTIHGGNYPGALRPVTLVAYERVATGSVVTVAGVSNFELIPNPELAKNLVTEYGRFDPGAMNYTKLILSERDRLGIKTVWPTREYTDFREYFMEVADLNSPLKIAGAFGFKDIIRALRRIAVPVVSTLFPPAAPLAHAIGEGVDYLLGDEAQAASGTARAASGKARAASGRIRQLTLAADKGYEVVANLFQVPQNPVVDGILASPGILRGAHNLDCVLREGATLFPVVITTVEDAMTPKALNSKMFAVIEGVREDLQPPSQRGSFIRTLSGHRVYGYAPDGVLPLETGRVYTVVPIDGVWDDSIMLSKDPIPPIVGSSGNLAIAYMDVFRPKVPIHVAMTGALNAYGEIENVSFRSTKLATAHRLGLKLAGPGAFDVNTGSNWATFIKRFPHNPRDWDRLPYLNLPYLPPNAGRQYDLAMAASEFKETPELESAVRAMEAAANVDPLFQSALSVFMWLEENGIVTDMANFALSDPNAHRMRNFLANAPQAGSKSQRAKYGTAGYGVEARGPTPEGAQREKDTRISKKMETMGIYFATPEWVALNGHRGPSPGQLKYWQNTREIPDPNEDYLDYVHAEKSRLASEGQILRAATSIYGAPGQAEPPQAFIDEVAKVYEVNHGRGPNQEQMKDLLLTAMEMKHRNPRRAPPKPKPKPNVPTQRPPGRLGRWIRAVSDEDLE

B1: scFv-GD抗体 (scFv)
scFv: AVTLDESGGGLQTPGGALSLVCKASGFSISSYSMAWVRQAPGKGLEWVAGIYSSGSSTYYGSAVKGRATISRDNGQSTVRLQLNNLRAEDTGTYYCARGGCSTYGCGGYAGSIDAWGHGTEVIVSSASGGGGSGGGGSGGGGSALTQPSSVSANPGETVKITCSGGGSSYGYSWHQQKSPGSAPVTVIYNNTNRPSNIPSRFSGSKSGSTATLTITGVQADDEAIYFCGSADSSYVGIFGAGTTLTVLG
For B1, the binding was “binds”.

— CN105384815A
